Measured values: article doi:10.1101/2025.11.23.689998
These are yes or no findings as the source states them, for the method shown. In cells and extracts the contact can be indirect. A yes stands for co-enrichment or nearness to the bait. Other partners may have been found.

Chains of the proteins cited; added tags and fusions are not shown.
UniProt Q9FIJ0: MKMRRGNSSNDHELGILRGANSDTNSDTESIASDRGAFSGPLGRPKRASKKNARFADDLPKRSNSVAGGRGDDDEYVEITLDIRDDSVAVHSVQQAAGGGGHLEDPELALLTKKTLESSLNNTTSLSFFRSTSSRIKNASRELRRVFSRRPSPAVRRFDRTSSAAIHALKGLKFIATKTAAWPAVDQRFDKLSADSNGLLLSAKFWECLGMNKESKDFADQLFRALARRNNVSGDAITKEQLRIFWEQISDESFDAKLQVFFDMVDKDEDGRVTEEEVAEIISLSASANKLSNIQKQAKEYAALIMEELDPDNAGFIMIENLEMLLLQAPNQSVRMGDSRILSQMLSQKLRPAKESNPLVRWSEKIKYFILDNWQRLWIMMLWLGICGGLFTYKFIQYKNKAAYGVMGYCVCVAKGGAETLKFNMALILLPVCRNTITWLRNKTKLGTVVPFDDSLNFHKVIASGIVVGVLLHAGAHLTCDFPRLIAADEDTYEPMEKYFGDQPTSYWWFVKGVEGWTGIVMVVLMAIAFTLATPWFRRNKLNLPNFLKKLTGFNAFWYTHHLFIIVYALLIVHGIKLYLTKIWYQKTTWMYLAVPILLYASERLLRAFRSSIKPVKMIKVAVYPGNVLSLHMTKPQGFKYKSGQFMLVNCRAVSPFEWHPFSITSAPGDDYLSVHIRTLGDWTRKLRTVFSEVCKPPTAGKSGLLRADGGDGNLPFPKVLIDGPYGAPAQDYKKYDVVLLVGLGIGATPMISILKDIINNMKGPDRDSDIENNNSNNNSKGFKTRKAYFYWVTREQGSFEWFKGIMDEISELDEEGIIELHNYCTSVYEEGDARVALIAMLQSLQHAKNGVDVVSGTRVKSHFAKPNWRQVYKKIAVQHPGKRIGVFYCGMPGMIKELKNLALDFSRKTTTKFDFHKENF
UniProt P14713: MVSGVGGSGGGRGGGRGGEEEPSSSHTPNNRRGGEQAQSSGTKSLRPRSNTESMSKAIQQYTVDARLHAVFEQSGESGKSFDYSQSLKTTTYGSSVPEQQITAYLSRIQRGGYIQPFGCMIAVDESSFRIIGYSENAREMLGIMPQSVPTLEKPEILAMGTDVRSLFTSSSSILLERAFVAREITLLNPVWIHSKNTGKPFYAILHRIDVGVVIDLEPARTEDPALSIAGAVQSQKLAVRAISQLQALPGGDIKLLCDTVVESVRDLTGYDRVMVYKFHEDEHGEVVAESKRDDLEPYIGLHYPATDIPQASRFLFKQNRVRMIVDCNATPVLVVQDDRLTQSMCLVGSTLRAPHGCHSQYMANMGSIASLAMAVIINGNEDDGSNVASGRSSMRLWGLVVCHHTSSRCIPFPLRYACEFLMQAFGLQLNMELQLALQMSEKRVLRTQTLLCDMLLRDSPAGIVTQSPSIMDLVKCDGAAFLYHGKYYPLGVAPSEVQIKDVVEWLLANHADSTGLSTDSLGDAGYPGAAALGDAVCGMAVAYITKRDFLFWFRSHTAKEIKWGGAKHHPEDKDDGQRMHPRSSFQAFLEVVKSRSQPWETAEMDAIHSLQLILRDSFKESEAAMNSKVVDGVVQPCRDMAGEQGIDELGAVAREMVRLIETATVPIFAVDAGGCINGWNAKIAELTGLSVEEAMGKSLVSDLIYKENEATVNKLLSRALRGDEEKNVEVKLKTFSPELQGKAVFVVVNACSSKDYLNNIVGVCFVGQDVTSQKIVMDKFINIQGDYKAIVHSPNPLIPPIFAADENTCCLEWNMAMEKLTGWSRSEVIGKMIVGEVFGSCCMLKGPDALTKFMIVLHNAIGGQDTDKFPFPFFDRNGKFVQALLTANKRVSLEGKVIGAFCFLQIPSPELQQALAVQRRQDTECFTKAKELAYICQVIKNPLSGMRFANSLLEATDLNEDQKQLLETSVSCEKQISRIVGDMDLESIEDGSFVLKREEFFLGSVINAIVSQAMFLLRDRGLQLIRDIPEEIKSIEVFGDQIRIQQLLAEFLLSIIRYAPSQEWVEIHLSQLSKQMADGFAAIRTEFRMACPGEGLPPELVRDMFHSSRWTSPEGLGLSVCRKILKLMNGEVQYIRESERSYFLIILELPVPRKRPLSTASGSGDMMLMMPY

biological target: HA-tagged RBOHD (RESPIRATORY BURST OXIDASE PROTEIN D) (Arabidopsis thaliana) (UniProt Q9FIJ0); experiment: affinity purification with mass spectrometry

Row | binding | Binder
1 | binds | SERINE/THREONINE-PROTEIN KINASE BSK4 (At1g01740) (enzyme, UniProt F4HU55 1-483) MGGQSSKIGTCCSHKTTALEAPDVENKENGEVNGVHSFREYSLEQLKIATSCFALENVVSEHGETAPNVVYQGKLENHMKIAIKRFSGTAWPDPRQFLEEARLVGQLRSKRMANLLGYCCEGGERLLVAEFMPNETLAKHLFHWDTEPMKWAMRLRVALYISEALEYCSNNGHTLYHDLNAYRVLFDEECNPRLSTFGLMKNSRDGKSYSTNLAFTPPEYLRTGRITAESVIYSFGTLLLDLLTGKHIPPSHALDLIRDRNLQTLTDSCLEGQFSDSDGTELVRLTSCCLQYEARERPNIKSLVTALISLQKDTEVLSHVLMGLPQSGTFASPPSPFAEACSGKDLTSMVEILEKIGYKDDEDLSFMWTEQMQEAINSKKKGDIAFRRKDFSEAIEFYTQFLDLGMISATVLVRRSQSYLMSNMAKEALDDAMKAQGISPVWYVALYLQSAALSVLGMEKESQIALTEGSILEARKISASTQN

biological target: phyB-miniTurbo (phyB CDS - miniTurbo-sCFP3A-3FLAG) (Arabidopsis thaliana) (UniProt P14713); experiment: proximity labelling

Row | binding | Binder
2 | binds | LRR-like receptor At5g66900 (receptor, UniProt Q9FKZ1 1-809) MNDWASLGIGSIGEAVFSKLLKVVIDEAKKFKAFKPLSKDLVSTMEILFPLTQKIDSMQKELDFGVKELKELRDTIERADVAVRKFPRVKWYEKSKYTRKIERINKDMLKFCQIDLQLLQHRNQLTLLGLTGNLVNSVDGLSKRMDLLSVPAPVFRDLCSVPKLDKVIVGLDWPLGELKKRLLDDSVVTLVVSAPPGCGKTTLVSRLCDDPDIKGKFKHIFFNVVSNTPNFRVIVQNLLQHNGYNALTFENDSQAEVGLRKLLEELKENGPILLVLDDVWRGADSFLQKFQIKLPNYKILVTSRFDFPSFDSNYRLKPLEDDDARALLIHWASRPCNTSPDEYEDLLQKILKRCNGFPIVIEVVGVSLKGRSLNTWKGQVESWSEGEKILGKPYPTVLECLQPSFDALDPNLKECFLDMGSFLEDQKIRASVIIDMWVELYGKGSSILYMYLEDLASQNLLKLVPLGTNEHEDGFYNDFLVTQHDILRELAICQSEFKENLERKRLNLEILENTFPDWCLNTINASLLSISTDDLFSSKWLEMDCPNVEALVLNLSSSDYALPSFISGMKKLKVLTITNHGFYPARLSNFSCLSSLPNLKRIRLEKVSITLLDIPQLQLSSLKKLSLVMCSFGEVFYDTEDIVVSNALSKLQEIDIDYCYDLDELPYWISEIVSLKTLSITNCNKLSQLPEAIGNLSRLEVLRLCSSMNLSELPEATEGLSNLRFLDISHCLGLRKLPQEIGKLQNLKKISMRKCSGCELPESVTNLENLEVKCDEETGLLWERLKPKMRNLRVQEEEIEHNLNLLQMF
3 | binds | MnSOD1 (enzyme, UniProt O81235 30-231) TFTLPDLPYDYGALEPAISGEIMQIHHQKHHQAYVTNYNNALEQLDQAVNKGDASTVVKLQSAIKFNGGGHVNHSIFWKNLAPSSEGGGEPPKGSLGSAIDAHFGSLEGLVKKMSAEGAAVQGSGWVWLGLDKELKKLVVDTTANQDPLVTKGGSLVPLVGIDVWEHAYYLQYKNVRPEYLKNVWKVINWKYASEVYEKENN

The next lines start with the binder.

Row | Binder | binding
4 | LRR-like receptor At5g45510 (receptor, UniProt Q8VZC7 1-1222) MSDPLKMAAETEEIKPVPAAMGEKKDVVLCKKIVETLGGGGDQRVLLVGEAGIGKTRMAQMVDKEASKDVLCYQTLWLHLNRKFKVNDNYIKEKKFEDEWSLYENIASQLSLYSDFEETEVGERDEDEEEEKKVEDLLKDLKPKIEKYLLEKKEAVVKKLEDDKKKKEKEAAEKLEAEKKLVDPAAKKAKDHGNKNPTDAAKEKTTQVVAGGEDKAQTSSERKPYLLLILDDEGMTSEYEVMVHLGLEDFLKDHTPRKILITRRQETEEATKSGEHAEGEANDSQSGEKKEDTDGEDEIRSADKEEPESQARVKTEEKHEKVVPPTIDDLWGSTNTYGEITFQTTNESQDLLESFNLKEAEALFTSSMFFKDMPNFFFDPVPGTDEKLLNHMLKKSKSLPAAINVLAKSLEYTVKSKSYKLNKDEEERLLKEKIEMVLSAERGNPSDQESSSESPKKASGENPILLLAYKLFKTDGPLKDTILDCFWHSLDFFEHCGCVYYRDLITQWILEGYFDPVRSVEKAYQDGHSIFMELIDRGMLKIQENNVVVPEMAMRNVIDPRRGGHLGKSRLGFSRVYGGNKRKGIGKITQLDDMIKTVQAKKGDKITTILVSGDRLRRVTPKKFFKNLKELEVLGLFEPTVKPFVPSFSDQLKLLRVLIIRDCDLLKSIEELKALTKLNTLEVSGASSLSKISEKFFESFPELRSLHLSGLKIESSPPSISGLKELHCLIIKDCPLLQDLPNIQELVNLEVVDVSGASGLRTCFDNADGAKKNKSKNKNFYLLTKLQHLDFSGSQIERLPIFQDSAVAAKLHSLTRLLLRNCSKLRRLPSLKPLSGLQILDLSGTTSLVEMLEVCFEDKLELKTLNLSGTNLSELATTIEDLSSLNELLLRDCINLDAIPNIEKLENLEVIDVSGSAKLAKIEGSFEKMFYLRVVDLSGTQVETPELPADTKIHCLKRFTRADGKCFERDTWREIKEDIERDRSENASSSDAVVISQEITEKKPVEIREVESNAPRASDCTEKVDVNKERLLKVPIDRALYQKALTSLVDSKIPQEEVLEINETNKLDEEALASAEFVSFVDCTPERVKSIFEKAKLVKGCWLRMCFDIKDPFDGVDEENLKSLETLSITNLLSLETISFIAKLENLKNLSLDCCPKIKTIFPEMPASLPVLNLKHCENLEKVVVGVEVSTHTNLDLKVENCPKFGDYVMVDHSDVPPPHEC | binds
5 | BRI1-ASSOCIATED RECEPTOR KINASE (receptor, UniProt Q94F62 26-615) NAEGDALSALKNSLADPNKVLQSWDATLVTPCTWFHVTCNSDNSVTRVDLGNANLSGQLVMQLGQLPNLQYLELYSNNITGTIPEQLGNLTELVSLDLYLNNLSGPIPSTLGRLKKLRFLRLNNNSLSGEIPRSLTAVLTLQVLDLSNNPLTGDIPVNGSFSLFTPISFANTKLTPLPASPPPPISPTPPSPAGSNRITGAIAGGVAAGAALLFAVPAIALAWWRRKKPQDHFFDVPAEEDPEVHLGQLKRFSLRELQVASDNFSNKNILGRGGFGKVYKGRLADGTLVAVKRLKEERTQGGELQFQTEVEMISMAVHRNLLRLRGFCMTPTERLLVYPYMANGSVASCLRERPESQPPLDWPKRQRIALGSARGLAYLHDHCDPKIIHRDVKAANILLDEEFEAVVGDFGLAKLMDYKDTHVTTAVRGTIGHIAPEYLSTGKSSEKTDVFGYGVMLLELITGQRAFDLARLANDDDVMLLDWVKGLLKEKKLEALVDVDLQGNYKDEEVEQLIQVALLCTQSSPMERPKMSEVVRMLEGDGLAERWEEWQKEEMFRQDFNYPTHHPAVSGWIIGDSTSQIENEYPSGPR | binds
6 | LRR-like receptor At5g43470 (receptor, UniProt Q8W4J9 1-908) MAEAFVSFGLEKLWDLLSRESERLQGIDGQLDGLKRQLRSLQSLLKDADAKKHGSDRVRNFLEDVKDLVFDAEDIIESYVLNKLSGKGKGVKKHVRRLACFLTDRHKVASDIEGITKRISEVIGEMQSFGIQQIIDGGRSLSLQERQRVQREIRQTYPDSSESDLVGVEQSVKELVGHLVENDVHQVVSIAGMGGIGKTTLARQVFHHDLVRRHFDGFAWVCVSQQFTQKHVWQRILQELQPHDGDILQMDEYALQRKLFQLLEAGRYLVVLDDVWKKEDWDVIKAVFPRKRGWKMLLTSRNEGVGIHADPTCLTFRASILNPEESWKLCERIVFPRRDETEVRLDEEMEAMGKEMVTHCGGLPLAVKALGGLLANKHTVPEWKRVFDNIGSQIVGGSWLDDNSLNSVYRILSLSYEDLPTHLKHCFLNLAHFPEDSEISTYSLFYYWAAEGIYDGSTIEDSGEYYLEELVRRNLVIADDNYLSWQSKYCQMHDMMREVCLSKAKEENFLQIIIDPTCTSTINAQSPSRSRRLSIHSGKAFHILGHKNKTKVRSLIVPRFEEDYWIRSASVFHNLTLLRVLDLSWVKFEGGKLPCSIGGLIHLRYLSLYEAKVSHLPSTMRNLKLLLYLNLRVDTEEPIHVPNVLKEMIQLRYLSLPLKMDDKTKLELGDLVNLEYLYGFSTQHSSVTDLLRMTKLRYLAVSLSERCNFETLSSSLRELRNLETLNFLFSLETYMVDYMGEFVLDHFIHLKQLGLAVRMSKIPDQHQFPPHLVHLFLIYCGMEEDPMPILEKLLHLKSVRLARKAFLGSRMVCSKGGFPQLCVIEISKESELEEWIVEEGSMPCLRTLTIDDCKKLKELPDGLKYITSLKELKIEGMKREWKEKLVPGGEDYYKVQHIPDVQFINCDQ | binds
7 | LRR-like receptor At5g48620 (receptor, UniProt Q9FJK8 1-908) MAEGFVSFGLEKLWDLLSRESERLQGIDEQLDGLKRQLRSLQSLLKDADAKKHGSDRVRNFLEDVKDLVFDAEDIIESYVLNKLRGEGKGVKKHVRRLARFLTDRHKVASDIEGITKRISDVIGEMQSFGIQQIIDGVRSLSLQERQRVQREIRQTYPDSSESDLVGVEQSVEELVGHLVENDIYQVVSIAGMGGIGKTTLARQVFHHDLVRRHFDGFAWVCVSQQFTLKHVWQRILQELQPHDGNILQMDESALQPKLFQLLETGRYLLVLDDVWKKEDWDRIKAVFPRKRGWKMLLTSRNEGVGIHADPTCLTFRASILNPEESWKLCERIVFPRRDETEVRLDEEMEAMGKEMVTHCGGLPLAVKALGGLLANKHTVPEWKRVSDNIGSQIVGGSCLDDNSLNSVNRILSLSYEDLPTHLKHRFLYLAHFPEDSKIYTQDLFNYWAAEGIYDGSTIQDSGEYYLEELVRRNLVIADNRYLSLEFNFCQMHDMMREVCLSKAKEENFLQIIKDPTSTSTINAQSPSRSRRFSIHSGKAFHILGHRNNPKVRSLIVSRFEEDFWIRSASVFHNLTLLRVLDLSRVKFEGGKLPSSIGGLIHLRYLSLYGAVVSHLPSTMRNLKLLLFLNLRVDNKEPIHVPNVLKEMLELRYLSLPQEMDDKTKLELGDLVNLEYLWYFSTQHSSVTDLLRMTKLRNLGVSLSERCNFETLSSSLRELRNLEMLNVLFSPEIVMVDHMGEFVLDHFIHLKQLGLAVRMSKIPDQHQFPPHLAHIHLVHCVMKEDPMPILEKLLHLKSVALSYGAFIGRRVVCSKGGFPQLCALGISGESELEEWIVEEGSMPCLRTLTIHDCEKLKELPDGLKYITSLKELKIREMKREWKEKLVPGGEDYYKVQHIPDVQFINCDL | binds
8 | CRK17 (receptor, UniProt Q8L710 27-686) QQTCDNTAGSFKPNSTYDNNRRLLLSTFASNVTAQNGYFNGSFGLGTDRVYAMGMCAPGAEPDVCSNCIKNTAEGLLQICLNQTDGFSWSGEETLCLVRYSNKSFSGLLGLEPSNDFFNVNEIRKEDQKEFDSVFDELMFRTIQGASSSVRNNSNSLSLSGKYYAKDVAPEPVYGNISVVMQCTPDVSSKDCNLCLERSLDFYKKWYNGKRGTIILRPSCFFRWELYTFFGAFDSINARHPPPPPRPLSPPPLKTPSVTNQTNITKKNDSRISGGTIAAIVVVVVVTIILIVVGLVICKRRKQKQEIELPIVLNEAESVQFDLKTIEAATGNFSEHNKLGAGGFGEVYKGMLLNGTEIAVKRLSKTSGQGEIEFKNEVVVVAKLQHINLVRLLGFSLQGEEKLLVYEFVPNKSLDYFLFDPNKRNQLDWTVRRNIIGGITRGILYLHQDSRLKIIHRDLKASNILLDADMNPKIADFGMARIFGVDQTVANTARVVGTFGYMSPEYVTHGQFSMKSDVYSFGVLILEIISGKKNSSFYQMDGLVNNLVTYVWKLWENKTMHELIDPFIKEDCKSDEVIRYVHIGLLCVQENPADRPTMSTIHQVLTTSSITLPVPQPPGFFFRNGPGSNPSSQGMVPGQSSSKSFTSSVDEATITQVNPR | binds
